Data as given in PubChem BioAssay AID1259276 (Sanger Institute, 2017).
Shown is an unselected part of 794 reagents. 24 of them (3%) count as active. 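Calls come only from the siRNA-alone arm; drug synergy scores do not affect them.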 Unmarked entries are inactive. No viability above 1 is reported: the scale is capped. Reagent sequences are not shown. Not stated in the record: the amount of reagent, the time to read-out.

Assay: 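Kinase knock-downs that reduce colorectal cancer cell viability alone or with anchor drugs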 (primary screen)
System: human C2BBe1 colorectal cancer cells
Knock-down reagent: siRNA pool against human genes
Conditions: DMSO vehicle, or one anchor drug: BYL719 at 1 µM, cetuximab at 5 µg/ml, or trametinib at 10 nM; exposure length not stated
Read-out: 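Viability after knock-down relative to non-targeting siRNA controls, averaged across replicates, given as ratio and control-derived robust z-score, with per-drug synergy scores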
Scale: viability robust z-score, siRNA alone and viability vs control, siRNA alone: higher = more viable cells after knock-down; synergy score with BYL719: higher = stronger combined killing with BYL719; synergy score with cetuximab: higher = stronger combined killing with cetuximab; synergy score with trametinib: higher = stronger combined killing with trametinib
Hit rule: 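a siRNA pool tested without drug is essential if its viability robust z-score falls under -3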
Meaning of the calls: active = essential (siRNA alone); inactive = no change (siRNA alone)

target	viability robust z-score, siRNA alone	viability vs control, siRNA alone	synergy score with BYL719	synergy score with cetuximab	synergy score with trametinib
PIK3C3	-1.2	0.894	0.0729	-0.116	-0.165
PIK3C2A	0.472	1	0.102	0.181	-0.031
ACVRL1	0.472	1	0.0614	-0.0115	-0.0667
HIPK4	0.472	1	-0.106	0.0671	-0.0667
SCYL3	-1.27	0.89	-0.0502	-0.12	-0.169
NEK2	-2.32	0.824	-0.0747	-0.18	-0.231
MAP3K20	0.472	1	-0.142	-0.0115	-0.0667
TYK2	-1.78	0.858	-0.211	-0.152	-0.127
PRKCSH	0.472	1	-0.142	-0.0115	-0.0667
CASP8	0.472	1	-0.00471	0.0028	-0.0667
PI4KA	0.472	1	0.131	-0.0115	0.0509
IRAK1	-1.93	0.849	-0.106	-0.124	-0.17
TRIO	-0.565	0.935	-0.0693	-0.0438	-0.111
STYK1	-3.46 (active)	0.752	-0.281	-0.227	0.00196
AKAP9	0.472	1	-0.0544	0.0098	-0.0667
RNASEL	0.472	1	-0.142	-0.0115	-0.0667
CHKB	0.472	1	-0.142	-0.0115	0.088
FES	0.472	1	-0.0894	0.104	-0.0667
CAMK2G	0.472	1	0.0766	0.0633	-0.0667
LRRK1	0.472	1	0.0456	-0.0115	-0.0388
CDK10	0.472	1	-0.142	0.0686	-0.0667
PRKACA	0.121	0.978	-0.146	-0.0334	0.0459
POMK	0.472	1	-0.139	-0.0115	0.0573
ULK4	0.472	1	0.261	0.0985	0.0966
CDK18	0.472	1	-0.0716	0.188	-0.0667
PIP4K2B	0.472	1	0.00384	0.281	-0.0667
PSKH2	-0.648	0.929	0.079	-0.0812	-0.133
MAST1	0.472	1	-0.142	-0.0115	-0.0667
CLK2	0.472	1	-0.142	-0.0115	0.0091
OBSCN	0.472	1	-0.142	-0.0115	0.173
MAP2K1	0.472	1	-0.117	-0.0115	-0.0667
PIM2	0.472	1	0.0578	-0.0115	0.132
ERBB4	-1.65	0.866	-0.122	-0.143	-0.191
PKN2	-1.05	0.904	0.0447	0.218	-0.0415

6 entries from above, set out differently:
AKAP9
- viability robust z-score, siRNA alone: 0.472
- viability vs control, siRNA alone: 1
- synergy score with BYL719: -0.0544
- synergy score with cetuximab: 0.0098
- synergy score with trametinib: -0.0667

RNASEL
- viability robust z-score, siRNA alone: 0.472
- viability vs control, siRNA alone: 1
- synergy score with BYL719: -0.142
- synergy score with cetuximab: -0.0115
- synergy score with trametinib: -0.0667

CHKB
- viability robust z-score, siRNA alone: 0.472
- viability vs control, siRNA alone: 1
- synergy score with BYL719: -0.142
- synergy score with cetuximab: -0.0115
- synergy score with trametinib: 0.088

FES
- viability robust z-score, siRNA alone: 0.472
- viability vs control, siRNA alone: 1
- synergy score with BYL719: -0.0894
- synergy score with cetuximab: 0.104
- synergy score with trametinib: -0.0667

CAMK2G
- viability robust z-score, siRNA alone: 0.472
- viability vs control, siRNA alone: 1
- synergy score with BYL719: 0.0766
- synergy score with cetuximab: 0.0633
- synergy score with trametinib: -0.0667

LRRK1
- viability robust z-score, siRNA alone: 0.472
- viability vs control, siRNA alone: 1
- synergy score with BYL719: 0.0456
- synergy score with cetuximab: -0.0115
- synergy score with trametinib: -0.0388
